Measured values taken from paper PMC3423437, “Characterization of Multisugar-Binding C-Type Lectin (SpliLec) from a Bacterial-Challenged Cotton Leafworm, Spodoptera littoralis” (PLoS ONE, 2012).

Each compound was assayed on T1, SpliLec (purified mature peptide) (assay: inhibition of hemagglutination, cow erythrocytes (serial dilution)). Conditions: SpliLec 1.0 µg/ml, TBS, 5 mM CaCl2, 37°C, 1 h; competes with erythrocytes.
T1 construct: mature peptide, 291 residues (18-residue signal peptide removed), two CRDs; pPROEX HTa His tag, E. coli DH5alpha, Ni-NTA; 35 kDa subunit, 140 kDa tetramer
Assay type: binding, Spodoptera littoralis
Description: inhibition of hemagglutination, cow erythrocytes (serial dilution) on SpliLec (purified mature peptide)

| SMILES | Minimum inhibitory concentration (mM or μg/ml) / Purified SpliLec [mM] | Minimum inhibitory concentration (mM or μg/ml) / Immunized haemolymph / 72 h [mM] |
| --- | --- | --- |
| OC1OC[C@@H](O)[C@H](O)[C@H]1O (stereo partly drawn) [D-Xylose] | 50 (≈ 7510 µg/mL) | – |
| CC(=O)N[C@H]1C(O)O[C@H](CO)[C@H](O)[C@@H]1O (stereo partly shown) [N- Acetylgalactosamine] | – | 10 (≈ 2210 µg/mL) |
| OC[C@H]1O[C@@H](O[C@H]2[C@H](O)[C@@H](O)C(O)O[C@@H]2CO)[C@H](O)[C@@H](O)[C@H]1O (stereo partly shown) [Lactose] | – | 10 (≈ 3420 µg/mL) |
| CC(=O)N[C@H]1C(O)O[C@H](CO)[C@@H](O)[C@@H]1O (stereo partly shown) [N- Acetylglucosamine] | 30 (≈ 6640 µg/mL) | – |
| OC[C@H]1OC(O)[C@H](O)[C@@H](O)[C@H]1O (stereo partly drawn) [D-Galactose] | 3 (≈ 540 µg/mL) | – |
| OC[C@H]1OC(O)[C@@H](O)[C@@H](O)[C@@H]1O (stereo partly drawn) [D-Mannose] | 10 (≈ 1800 µg/mL) | – |
| OCC1(O)OC[C@@H](O)[C@@H](O)[C@@H]1O (stereo partly shown) [Fructose] | 100 (≈ 18000 µg/mL) | – |
| OC[C@H]1O[C@@](CO)(O[C@H]2O[C@H](CO)[C@@H](O)[C@H](O)[C@H]2O)[C@@H](O)[C@@H]1O [Sucrose] | 100 (≈ 34200 µg/mL) | – |
| OC[C@H]1OC(O)[C@H](O)[C@@H](O)[C@@H]1O (stereo partly drawn) [D-Glucose] | 30 (≈ 5400 µg/mL) | – |
| OC[C@H]1O[C@H](OC[C@H]2O[C@H](O[C@]3(CO)O[C@H](CO)[C@@H](O)[C@@H]3O)[C@H](O)[C@@H](O)[C@@H]2O)[C@H](O)[C@@H](O)[C@H]1O [Raffinose] | – | 10 (≈ 5040 µg/mL) |

In brackets after ≈: the same amount, converted by molar mass.
